# Results are given in words; binding and its absence hold for the method and conditions named. Binding can be weak; no strength is given. Where a sequence is shown, tags or fusion partners need not be part of it.
# Sequences of proteins named here, by UniProt entry; tags and fusion partners are left off. A change or cut given only in a name is not applied to a line headed by its entry.
# UniProt P0A9A6: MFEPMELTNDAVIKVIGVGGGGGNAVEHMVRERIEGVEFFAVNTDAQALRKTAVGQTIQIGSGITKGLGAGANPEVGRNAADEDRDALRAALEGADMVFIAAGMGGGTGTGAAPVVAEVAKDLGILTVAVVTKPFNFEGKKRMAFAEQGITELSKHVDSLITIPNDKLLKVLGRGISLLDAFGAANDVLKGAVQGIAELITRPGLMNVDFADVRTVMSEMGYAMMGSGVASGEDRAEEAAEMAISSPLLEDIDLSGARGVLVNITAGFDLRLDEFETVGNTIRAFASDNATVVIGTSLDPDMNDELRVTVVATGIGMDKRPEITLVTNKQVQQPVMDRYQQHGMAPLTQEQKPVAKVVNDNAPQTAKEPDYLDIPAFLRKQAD
# B1: ZapA (bacterial two-hybrid fusion) (protein, UniProt P0ADS2 1-109)
# chain: MSAQPVDIQIFGRSLRVNCPPDQRDALNQAADDLNQRLQDLKERTRVTNTEQLVFIAALNISYELAQEKAKTRDYAASMEQRIRMLQQTIEQALLEQGRITEKTNQNFE
# Biological target: FtsZ-T25 fusion protein (bacterial two-hybrid) (E. coli) (UniProt P0A9A6)
# Assay: two-hybrid
binder,measurement,value
B1,binding,binds
